{"source": "PubChem BioAssay AID1159578, Peter MacCallum Cancer Centre, 2015", "purpose": "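siRNA pools altering how lymphatic endothelial cells close a scratch wound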 (primary screen)", "cell system": "human lymphatic endothelial cells", "knock-down reagent": "siRNA pool against human genes, 40 nM", "timing": "48 h after transfection", "read-out": "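Cells stained with dye and imaged after a scratch; covered wound area and nuclei counted, duplicates averaged, migration set against mock wells and turned into a robust z-score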", "direction": "migration robust z-score: higher = faster migration into the scratch; nuclei per well: higher = more cells in the well", "active means": "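Migration changed when robust z exceeds 2 or falls below -2 and mean nuclei number is at least 3300; otherwise not called changed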", "meaning of the calls": "active = migration changed; inactive = no migration change, or too few cells", "note": "In all, the deposit lists about 18,000 reagents; below is a part drawn at random. About 1,030 of all reagents (5.7%) were called active. 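Inactive calls also include pools with fewer than 3300 nuclei, whose migration was not assessed.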 Raw values are not corrected between plates. Further read-outs or replicates are left out here."}
{"gene": "OR4F16 (olfactory receptor family 4 subfamily F member 16)", "migration robust z-score": -1.36, "nuclei per well, duplicate mean": 5036, "outcome": "inactive"}
{"gene": "ARL6IP6 (ARF like GTPase 6 interacting protein 6)", "migration robust z-score": 2.99, "nuclei per well, duplicate mean": 6074, "outcome": "active"}
{"gene": "ADGRE1 (adhesion G protein-coupled receptor E1)", "migration robust z-score": 0.03, "nuclei per well, duplicate mean": 4365, "outcome": "inactive"}
{"gene": "RNF113A (ring finger protein 113A)", "migration robust z-score": -0.44, "nuclei per well, duplicate mean": 6043, "outcome": "inactive"}
{"gene": "ERCC4 (ERCC excision repair 4, endonuclease catalytic subunit)", "migration robust z-score": 0.13, "nuclei per well, duplicate mean": 5422, "outcome": "inactive"}
{"gene": "NOP14 (NOP14 nucleolar protein)", "migration robust z-score": 0.46, "nuclei per well, duplicate mean": 6902, "outcome": "inactive"}
{"gene": "ZIC3 (Zic family zinc finger 3)", "migration robust z-score": -0.21, "nuclei per well, duplicate mean": 6658, "outcome": "inactive"}
{"gene": "PCP4 (Purkinje cell protein 4)", "migration robust z-score": -0.35, "nuclei per well, duplicate mean": 5413, "outcome": "inactive"}
{"gene": "VSIG4 (V-set and immunoglobulin domain containing 4)", "migration robust z-score": -0.4, "nuclei per well, duplicate mean": 5736, "outcome": "inactive"}
{"gene": "LCE1C (late cornified envelope 1C)", "migration robust z-score": 0.34, "nuclei per well, duplicate mean": 5559, "outcome": "inactive"}
{"gene": "CNR1 (cannabinoid receptor 1)", "migration robust z-score": -0.34, "nuclei per well, duplicate mean": 5312, "outcome": "inactive"}
{"gene": "HOXA3 (homeobox A3)", "migration robust z-score": 0.96, "nuclei per well, duplicate mean": 6506, "outcome": "inactive"}
{"gene": "BAG3 (BAG cochaperone 3)", "migration robust z-score": 0.98, "nuclei per well, duplicate mean": 5876, "outcome": "inactive"}
{"gene": "TMEM208 (transmembrane protein 208)", "migration robust z-score": 0.58, "nuclei per well, duplicate mean": 4780, "outcome": "inactive"}

Laid out differently: 2 of the entries above.
gene,migration robust z-score,"nuclei per well, duplicate mean",outcome
LCE1C (late cornified envelope 1C),0.34,5559,inactive
CNR1 (cannabinoid receptor 1),-0.34,5312,inactive
